The target in experiment [1] is T1, GST-tagged recombinant PDZD8 phosphorylated by AMPK in vitro (human) (UniProt Q8NEN9).
T1 sequence (chain, phosphothreonine at 527 (phosphorylated by AMPK in vitro)): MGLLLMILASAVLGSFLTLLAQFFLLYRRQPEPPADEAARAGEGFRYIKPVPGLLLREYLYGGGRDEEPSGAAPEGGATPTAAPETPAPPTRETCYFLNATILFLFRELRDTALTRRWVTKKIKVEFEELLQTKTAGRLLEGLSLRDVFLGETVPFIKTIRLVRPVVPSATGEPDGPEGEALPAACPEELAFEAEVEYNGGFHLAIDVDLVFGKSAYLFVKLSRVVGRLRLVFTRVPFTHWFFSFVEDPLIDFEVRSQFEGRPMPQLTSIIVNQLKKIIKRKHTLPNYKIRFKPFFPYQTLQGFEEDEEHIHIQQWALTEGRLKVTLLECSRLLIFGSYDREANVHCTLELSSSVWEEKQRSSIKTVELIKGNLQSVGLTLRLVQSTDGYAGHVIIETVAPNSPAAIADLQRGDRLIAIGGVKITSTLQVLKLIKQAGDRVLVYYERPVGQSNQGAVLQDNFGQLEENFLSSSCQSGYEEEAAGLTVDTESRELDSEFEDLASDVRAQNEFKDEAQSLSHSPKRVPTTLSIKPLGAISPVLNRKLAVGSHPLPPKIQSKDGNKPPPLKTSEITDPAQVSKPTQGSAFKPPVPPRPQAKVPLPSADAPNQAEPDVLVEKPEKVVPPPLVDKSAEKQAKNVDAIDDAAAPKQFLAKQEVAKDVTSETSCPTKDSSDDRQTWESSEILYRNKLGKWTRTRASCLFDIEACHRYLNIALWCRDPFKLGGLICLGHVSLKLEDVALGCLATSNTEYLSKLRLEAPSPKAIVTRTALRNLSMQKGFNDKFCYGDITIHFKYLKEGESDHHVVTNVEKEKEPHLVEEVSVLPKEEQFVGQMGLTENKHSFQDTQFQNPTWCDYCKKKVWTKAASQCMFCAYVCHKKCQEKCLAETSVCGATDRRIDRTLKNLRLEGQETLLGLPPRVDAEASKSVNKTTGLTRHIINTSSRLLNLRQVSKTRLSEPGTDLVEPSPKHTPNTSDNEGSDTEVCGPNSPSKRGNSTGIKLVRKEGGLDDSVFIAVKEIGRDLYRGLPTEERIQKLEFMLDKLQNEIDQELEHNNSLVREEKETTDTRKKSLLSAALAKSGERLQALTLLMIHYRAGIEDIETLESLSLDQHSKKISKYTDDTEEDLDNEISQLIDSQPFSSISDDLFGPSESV
The experiment in a line: pull-down; recombinant His-tagged KGA or GAC mixed with recombinant GST-tagged PDZD8 or PDZD8-T527A that was pre-incubated with AMPK pre-phosphorylated with CaMKK2; GST tag pulled down, immunoblotting; both purified.

Amino acid sequences for entries named in this document (tags omitted). A change or cut given only in a name is not applied to a line headed by its entry. Chains listed by the source or under a name are the forms on record and can include a tag or linker. Residues count along the entry.
UniProt D3Z7P3, residues 55-674: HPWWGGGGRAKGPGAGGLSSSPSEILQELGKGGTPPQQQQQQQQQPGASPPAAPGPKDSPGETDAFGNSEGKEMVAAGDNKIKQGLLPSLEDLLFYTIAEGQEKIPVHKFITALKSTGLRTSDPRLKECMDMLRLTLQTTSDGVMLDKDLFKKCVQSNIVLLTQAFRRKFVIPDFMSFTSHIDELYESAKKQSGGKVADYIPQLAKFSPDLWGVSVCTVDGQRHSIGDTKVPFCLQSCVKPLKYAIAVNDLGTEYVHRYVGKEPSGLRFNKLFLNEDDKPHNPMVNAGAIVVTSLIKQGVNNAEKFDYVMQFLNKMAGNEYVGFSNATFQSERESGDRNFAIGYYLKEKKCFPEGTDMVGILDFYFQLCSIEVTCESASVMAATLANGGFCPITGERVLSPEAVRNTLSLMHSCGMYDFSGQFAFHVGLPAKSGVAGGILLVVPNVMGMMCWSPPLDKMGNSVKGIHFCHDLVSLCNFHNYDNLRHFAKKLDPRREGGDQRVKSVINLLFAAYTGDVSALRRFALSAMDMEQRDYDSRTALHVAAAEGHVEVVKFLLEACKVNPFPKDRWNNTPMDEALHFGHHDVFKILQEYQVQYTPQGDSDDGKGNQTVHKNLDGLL
recombinant His-tagged KGA isozyme of GLS1 (O94925, residues 55-669): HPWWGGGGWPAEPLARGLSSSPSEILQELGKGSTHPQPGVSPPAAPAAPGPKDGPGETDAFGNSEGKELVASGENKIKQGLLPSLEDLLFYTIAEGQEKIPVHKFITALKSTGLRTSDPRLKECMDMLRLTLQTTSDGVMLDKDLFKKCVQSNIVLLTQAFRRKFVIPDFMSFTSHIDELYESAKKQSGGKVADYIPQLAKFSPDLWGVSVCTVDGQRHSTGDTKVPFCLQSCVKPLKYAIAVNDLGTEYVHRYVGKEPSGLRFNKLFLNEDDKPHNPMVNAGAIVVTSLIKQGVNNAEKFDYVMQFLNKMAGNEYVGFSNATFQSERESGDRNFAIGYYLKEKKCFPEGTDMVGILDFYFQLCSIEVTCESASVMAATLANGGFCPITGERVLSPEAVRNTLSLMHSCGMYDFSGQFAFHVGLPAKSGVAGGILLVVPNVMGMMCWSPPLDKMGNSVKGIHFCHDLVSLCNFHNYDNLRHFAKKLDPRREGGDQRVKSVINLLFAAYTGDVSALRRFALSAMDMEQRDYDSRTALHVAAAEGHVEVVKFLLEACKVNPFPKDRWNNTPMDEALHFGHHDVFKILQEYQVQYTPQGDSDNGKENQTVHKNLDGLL
recombinant His-tagged GAC isozyme of GLS1 (O94925-3, form named): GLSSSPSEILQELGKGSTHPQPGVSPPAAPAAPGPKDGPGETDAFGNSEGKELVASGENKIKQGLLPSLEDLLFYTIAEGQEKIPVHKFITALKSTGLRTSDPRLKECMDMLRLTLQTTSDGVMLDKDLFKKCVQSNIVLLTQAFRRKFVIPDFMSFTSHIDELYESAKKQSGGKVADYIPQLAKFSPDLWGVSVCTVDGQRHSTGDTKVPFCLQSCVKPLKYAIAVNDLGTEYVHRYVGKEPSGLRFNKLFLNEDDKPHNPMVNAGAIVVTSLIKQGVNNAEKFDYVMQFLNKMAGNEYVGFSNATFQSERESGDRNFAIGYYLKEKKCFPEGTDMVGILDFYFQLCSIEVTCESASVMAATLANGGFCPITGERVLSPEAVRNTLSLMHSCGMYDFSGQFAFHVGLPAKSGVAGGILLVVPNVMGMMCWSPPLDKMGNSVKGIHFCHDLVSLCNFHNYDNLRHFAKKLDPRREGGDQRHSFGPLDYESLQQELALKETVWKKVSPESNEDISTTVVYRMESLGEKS

Experiment [2] deals with T2, GST-tagged recombinant PDZD8, not phosphorylated (human) (UniProt Q8NEN9).
T2 sequence: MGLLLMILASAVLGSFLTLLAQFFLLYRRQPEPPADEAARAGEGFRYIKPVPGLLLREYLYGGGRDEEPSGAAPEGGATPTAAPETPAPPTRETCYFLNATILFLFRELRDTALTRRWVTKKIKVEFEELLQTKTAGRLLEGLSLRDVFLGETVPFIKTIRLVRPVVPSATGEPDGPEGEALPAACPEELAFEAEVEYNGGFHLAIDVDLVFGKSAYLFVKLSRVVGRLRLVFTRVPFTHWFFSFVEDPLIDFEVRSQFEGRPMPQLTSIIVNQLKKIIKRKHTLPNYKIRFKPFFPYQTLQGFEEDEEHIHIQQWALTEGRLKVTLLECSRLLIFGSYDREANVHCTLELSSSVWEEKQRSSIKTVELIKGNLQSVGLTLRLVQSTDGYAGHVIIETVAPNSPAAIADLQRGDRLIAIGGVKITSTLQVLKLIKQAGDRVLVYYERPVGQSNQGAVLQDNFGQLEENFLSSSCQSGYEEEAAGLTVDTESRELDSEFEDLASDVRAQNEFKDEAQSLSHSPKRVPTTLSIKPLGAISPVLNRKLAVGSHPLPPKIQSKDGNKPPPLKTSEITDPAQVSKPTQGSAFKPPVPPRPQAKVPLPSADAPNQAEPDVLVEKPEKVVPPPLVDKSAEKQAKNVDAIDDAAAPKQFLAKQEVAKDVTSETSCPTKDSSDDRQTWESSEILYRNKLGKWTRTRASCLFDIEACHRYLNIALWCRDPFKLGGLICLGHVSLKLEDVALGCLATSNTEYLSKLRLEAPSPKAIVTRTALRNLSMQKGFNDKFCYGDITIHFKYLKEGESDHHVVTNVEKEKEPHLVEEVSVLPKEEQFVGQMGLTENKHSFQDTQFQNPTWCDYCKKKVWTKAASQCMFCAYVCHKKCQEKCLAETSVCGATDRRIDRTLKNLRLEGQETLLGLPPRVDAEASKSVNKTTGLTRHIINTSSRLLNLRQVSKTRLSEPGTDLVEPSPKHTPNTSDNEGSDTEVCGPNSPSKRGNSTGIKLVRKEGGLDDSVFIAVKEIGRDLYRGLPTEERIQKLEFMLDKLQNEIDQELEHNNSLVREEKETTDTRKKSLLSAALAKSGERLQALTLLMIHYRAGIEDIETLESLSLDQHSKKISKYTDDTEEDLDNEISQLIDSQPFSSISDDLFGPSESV
The description is as above.

Experiment [3] addresses T3, GST-tagged recombinant PDZD8-T527A, pre-incubated with AMPK (human) (UniProt Q8NEN9).
T3 sequence: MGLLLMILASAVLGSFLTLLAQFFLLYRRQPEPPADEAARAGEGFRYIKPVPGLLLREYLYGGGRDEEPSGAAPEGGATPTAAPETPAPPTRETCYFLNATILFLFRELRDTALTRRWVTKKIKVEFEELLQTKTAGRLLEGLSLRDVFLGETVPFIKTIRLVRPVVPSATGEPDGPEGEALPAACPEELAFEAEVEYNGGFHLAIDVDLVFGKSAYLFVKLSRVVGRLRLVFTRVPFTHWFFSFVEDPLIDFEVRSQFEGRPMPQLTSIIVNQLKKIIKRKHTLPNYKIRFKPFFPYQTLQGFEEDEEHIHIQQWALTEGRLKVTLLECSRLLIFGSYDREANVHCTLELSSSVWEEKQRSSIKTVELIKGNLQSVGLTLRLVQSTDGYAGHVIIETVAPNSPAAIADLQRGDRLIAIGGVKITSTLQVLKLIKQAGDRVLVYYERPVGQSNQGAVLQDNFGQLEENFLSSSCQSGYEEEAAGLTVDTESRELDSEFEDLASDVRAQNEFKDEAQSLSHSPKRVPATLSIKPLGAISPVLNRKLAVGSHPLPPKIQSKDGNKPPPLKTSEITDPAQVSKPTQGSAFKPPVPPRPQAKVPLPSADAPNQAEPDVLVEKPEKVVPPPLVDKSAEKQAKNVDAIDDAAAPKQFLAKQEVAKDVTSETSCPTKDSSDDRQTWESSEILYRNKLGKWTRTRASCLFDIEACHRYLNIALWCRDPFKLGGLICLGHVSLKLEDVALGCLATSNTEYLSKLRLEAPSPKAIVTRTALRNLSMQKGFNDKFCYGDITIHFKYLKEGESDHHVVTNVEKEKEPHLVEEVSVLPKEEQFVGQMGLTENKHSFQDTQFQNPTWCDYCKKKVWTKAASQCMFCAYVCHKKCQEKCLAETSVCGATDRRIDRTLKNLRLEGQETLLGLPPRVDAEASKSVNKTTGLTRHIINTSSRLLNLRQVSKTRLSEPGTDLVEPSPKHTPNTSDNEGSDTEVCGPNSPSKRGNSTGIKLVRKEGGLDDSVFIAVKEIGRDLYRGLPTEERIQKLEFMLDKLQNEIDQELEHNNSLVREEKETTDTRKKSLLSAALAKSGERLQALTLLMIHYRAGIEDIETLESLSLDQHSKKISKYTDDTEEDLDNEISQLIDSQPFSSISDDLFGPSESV
Described as above.

The target of experiment [4] is glutaminase 1 (GLS1; both KGA and GAC), endogenous in MEFs (mouse (endogenous in MEFs)) (UniProt D3Z7P3). Put plainly: proximity ligation; Duolink PLA in fixed MEFs expressing HA-tagged PDZD8 or its mutant, mouse anti-HA and rabbit anti-GLS1; cells unstarved or glucose-starved for 2 h; WT, AMPKα-/- and PDZD8-/- MEFs.
The target is the same in experiment [5]. The experiment in a line: co-IP; endogenous GLS1 (KGA and GAC) immunoprecipitated from MEF lysates in DDM/CHS lysis buffer (20 mM HEPES pH 7.4, 50 mM NaCl, 10 mM MgCl2, 0.5% DDM, 0.1% CHS), blot for co-precipitated PDZD8; cells unstarved or glucose-starved for 2 h; WT, AMPKα-/- and PDZD8-/- MEFs, the last with WT PDZD8 or PDZD8-T527A re-introduced.

These are yes or no findings as the source states them, for the method shown. For part of these data: Binding seen in cells or lysates may run through a third protein. Some results given as binding are weak or reduced against the parent protein; the word gives no strength. Tags and fused reporters may be left off the sequences shown.

For the molecule “recombinant His-tagged GAC isozyme of GLS1 (from UniProt O94925-3 71-598) (enzyme)”, the binding entry in experiment [1], in experiment [2] and in experiment [3] was “binds” in each case.

Take “recombinant His-tagged KGA isozyme of GLS1 (from UniProt O94925 55-669) (enzyme)”: the binding entry in experiment [1], in experiment [2] and in experiment [3] was “binds” each time.

B1: HA-tagged PDZD8, stably expressed in MEFs (protein, UniProt Q8NEN9 1-1154)
chain: MGLLLMILASAVLGSFLTLLAQFFLLYRRQPEPPADEAARAGEGFRYIKPVPGLLLREYLYGGGRDEEPSGAAPEGGATPTAAPETPAPPTRETCYFLNATILFLFRELRDTALTRRWVTKKIKVEFEELLQTKTAGRLLEGLSLRDVFLGETVPFIKTIRLVRPVVPSATGEPDGPEGEALPAACPEELAFEAEVEYNGGFHLAIDVDLVFGKSAYLFVKLSRVVGRLRLVFTRVPFTHWFFSFVEDPLIDFEVRSQFEGRPMPQLTSIIVNQLKKIIKRKHTLPNYKIRFKPFFPYQTLQGFEEDEEHIHIQQWALTEGRLKVTLLECSRLLIFGSYDREANVHCTLELSSSVWEEKQRSSIKTVELIKGNLQSVGLTLRLVQSTDGYAGHVIIETVAPNSPAAIADLQRGDRLIAIGGVKITSTLQVLKLIKQAGDRVLVYYERPVGQSNQGAVLQDNFGQLEENFLSSSCQSGYEEEAAGLTVDTESRELDSEFEDLASDVRAQNEFKDEAQSLSHSPKRVPTTLSIKPLGAISPVLNRKLAVGSHPLPPKIQSKDGNKPPPLKTSEITDPAQVSKPTQGSAFKPPVPPRPQAKVPLPSADAPNQAEPDVLVEKPEKVVPPPLVDKSAEKQAKNVDAIDDAAAPKQFLAKQEVAKDVTSETSCPTKDSSDDRQTWESSEILYRNKLGKWTRTRASCLFDIEACHRYLNIALWCRDPFKLGGLICLGHVSLKLEDVALGCLATSNTEYLSKLRLEAPSPKAIVTRTALRNLSMQKGFNDKFCYGDITIHFKYLKEGESDHHVVTNVEKEKEPHLVEEVSVLPKEEQFVGQMGLTENKHSFQDTQFQNPTWCDYCKKKVWTKAASQCMFCAYVCHKKCQEKCLAETSVCGATDRRIDRTLKNLRLEGQETLLGLPPRVDAEASKSVNKTTGLTRHIINTSSRLLNLRQVSKTRLSEPGTDLVEPSPKHTPNTSDNEGSDTEVCGPNSPSKRGNSTGIKLVRKEGGLDDSVFIAVKEIGRDLYRGLPTEERIQKLEFMLDKLQNEIDQELEHNNSLVREEKETTDTRKKSLLSAALAKSGERLQALTLLMIHYRAGIEDIETLESLSLDQHSKKISKYTDDTEEDLDNEISQLIDSQPFSSISDDLFGPSESV
B1: the binding result in experiment [4] and in experiment [5] was “binds” throughout.

B2: PDZ domain containing 8 (PDZD8), endogenous in MEFs (protein, UniProt B9EJ80 1-1147)
chain: MGLLLLILASAVLGSFLTLLAQFLLLYRRQPEPRADEAARAGDGFRYLKPVPGLPLREYLYGGGAEELAACSSEAGASSTPTPDSPAPPTLETCYFLNATILFLFRELRDTALARRWVTKKIKVEFEELLQTKTAGRLLEGLSLRDVFLGDTVPFIKTIRLVRPVVASGTGEPDDPDGDALPATCPEELAFEAEVEYNGGFHLAIDVDLVFGKSAYLFVKLSRVVGRLRFVLTRVPFTHWFFSFVEDPLIDFEVRSQFEGRPMPQLTSIIVNQLKKIIKRKHTLPSYKIRFKPFFPYQALQGFEEDEELIHIQQWALTEGRLKVTLLECSRLFIFGSYDRETNVHCTLELSSGVWEEKQRSSIKTVELIKGNLQSVGLTLRLVQSTDGYAGHVIIETVAPNSPAAMADLQRGDRLIAIGGVKITSTLQVLKLIKQAGDRVLVYYQRPAGQSSQDSLGQLEESFLSSSCQAAYEEDAAGLSADTENRDLDSEFEDLASDVRVQTELKEETQPLSHSPKRTPTTLSIKPLGAISPVLNRKLISGIHPPPQKLPSKEGNKPSTLKTSETTEAAQVSKPQGPTFKPPVPPRPQGRVPLPPTDTSAQADPEAPEKPDKVLLPPPPADKPAEKQVKSVDQGEDVAAGKQSSAKQEGVKDLPSESSAPTKDSSDDPQMWESSEVLYRNKVGKWSRTRASCVFDIEACHRYLNIALWCRDPFKLGGLICLGHVSLKLEEVALGCLATSNMEYLTKFRLEPPTPKAMVTRTALRNLSMQKGFNDKFCFGDITIHFKYLKEGEPDHHIVPNVEKEKELHLVEEVSTLPKEEHFVGQMSLSENKHSFQDTQFQNPTWCDYCKKKVWTKAASQCMFCAYVCHKKCQEKCLAETPLCGATERRIDRTLKNLRLEGQDPLLGLPPRVEIEANKSVNKTTGLTRHIINTSSRLLNLRQVSKTRLSEPGTDLVEPSPKHTPNTSDNEGSDTEVCGSNSPSKRGNSAGIKLMRKEGGLDDSVFIAVKEIGRDLYRGLPTEERIQKLEFMLDKLQNEIDQELEHNNSLVREEKETNDTRKKSVLSAALAKSGERLQALTLLMIHYRAGIEDIETLENLSLDQHSKKMNKYADDTEEDLDSEISQLIDSQPFSNISDDLFGPSESV
Turning to B2, the binding result in experiment [5] is given as “binds”.

The values are drawn from paper PMC11442470.
